Assay results from article PMC13246907.
No constants are given. Whether binding was seen depends on the method and setting. In cells and extracts the contact can be indirect. Some binding calls cover weakened binding; strength is not graded here.

By UniProt entry, the sequences of proteins in these tests, tags left out. Where a name states a change or a piece, a line headed by the entry shows the natural chain unless it says otherwise. Chains listed by the source or under a name are the forms on record and can include a tag or linker.
UniProt Q92560: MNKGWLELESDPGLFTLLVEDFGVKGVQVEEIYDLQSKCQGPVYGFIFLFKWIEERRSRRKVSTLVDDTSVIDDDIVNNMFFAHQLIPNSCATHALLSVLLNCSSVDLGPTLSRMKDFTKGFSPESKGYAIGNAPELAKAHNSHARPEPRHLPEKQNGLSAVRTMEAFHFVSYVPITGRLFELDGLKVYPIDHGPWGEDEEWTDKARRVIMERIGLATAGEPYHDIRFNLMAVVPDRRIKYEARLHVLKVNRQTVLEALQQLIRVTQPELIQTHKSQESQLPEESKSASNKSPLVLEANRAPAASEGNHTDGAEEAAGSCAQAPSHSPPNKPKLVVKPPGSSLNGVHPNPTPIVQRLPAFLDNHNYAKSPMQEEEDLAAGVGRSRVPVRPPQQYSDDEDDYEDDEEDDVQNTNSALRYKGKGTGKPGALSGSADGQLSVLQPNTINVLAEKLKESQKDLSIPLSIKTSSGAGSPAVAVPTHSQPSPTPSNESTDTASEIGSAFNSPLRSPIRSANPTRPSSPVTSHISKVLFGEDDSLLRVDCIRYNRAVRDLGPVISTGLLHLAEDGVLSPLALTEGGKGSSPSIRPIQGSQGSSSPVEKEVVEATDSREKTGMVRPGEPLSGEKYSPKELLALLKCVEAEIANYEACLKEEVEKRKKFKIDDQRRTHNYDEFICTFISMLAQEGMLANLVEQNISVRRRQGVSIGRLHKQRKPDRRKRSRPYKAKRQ
Flag-BAP1 ΔASXL (removal of amino acids 666 to 669) (Q92560, form named): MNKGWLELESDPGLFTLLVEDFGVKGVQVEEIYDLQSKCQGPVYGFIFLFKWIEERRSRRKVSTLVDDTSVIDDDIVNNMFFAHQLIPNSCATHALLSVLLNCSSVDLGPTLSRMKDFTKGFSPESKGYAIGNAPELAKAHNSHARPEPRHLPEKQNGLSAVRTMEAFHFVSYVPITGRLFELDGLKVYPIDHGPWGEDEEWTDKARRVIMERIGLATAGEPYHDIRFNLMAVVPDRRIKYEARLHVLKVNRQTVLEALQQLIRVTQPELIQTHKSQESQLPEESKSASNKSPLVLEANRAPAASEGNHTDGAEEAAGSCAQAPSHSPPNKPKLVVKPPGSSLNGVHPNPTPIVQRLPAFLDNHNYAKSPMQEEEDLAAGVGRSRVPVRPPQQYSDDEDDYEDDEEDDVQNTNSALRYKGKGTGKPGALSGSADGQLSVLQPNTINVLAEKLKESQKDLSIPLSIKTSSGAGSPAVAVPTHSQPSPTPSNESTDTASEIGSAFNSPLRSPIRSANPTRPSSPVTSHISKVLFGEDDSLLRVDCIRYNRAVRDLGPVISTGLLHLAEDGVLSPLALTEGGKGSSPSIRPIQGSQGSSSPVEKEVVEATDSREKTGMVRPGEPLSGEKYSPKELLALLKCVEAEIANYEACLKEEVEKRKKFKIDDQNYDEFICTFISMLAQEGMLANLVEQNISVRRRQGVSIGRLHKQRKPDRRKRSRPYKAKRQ
UniProt Q8IXJ9: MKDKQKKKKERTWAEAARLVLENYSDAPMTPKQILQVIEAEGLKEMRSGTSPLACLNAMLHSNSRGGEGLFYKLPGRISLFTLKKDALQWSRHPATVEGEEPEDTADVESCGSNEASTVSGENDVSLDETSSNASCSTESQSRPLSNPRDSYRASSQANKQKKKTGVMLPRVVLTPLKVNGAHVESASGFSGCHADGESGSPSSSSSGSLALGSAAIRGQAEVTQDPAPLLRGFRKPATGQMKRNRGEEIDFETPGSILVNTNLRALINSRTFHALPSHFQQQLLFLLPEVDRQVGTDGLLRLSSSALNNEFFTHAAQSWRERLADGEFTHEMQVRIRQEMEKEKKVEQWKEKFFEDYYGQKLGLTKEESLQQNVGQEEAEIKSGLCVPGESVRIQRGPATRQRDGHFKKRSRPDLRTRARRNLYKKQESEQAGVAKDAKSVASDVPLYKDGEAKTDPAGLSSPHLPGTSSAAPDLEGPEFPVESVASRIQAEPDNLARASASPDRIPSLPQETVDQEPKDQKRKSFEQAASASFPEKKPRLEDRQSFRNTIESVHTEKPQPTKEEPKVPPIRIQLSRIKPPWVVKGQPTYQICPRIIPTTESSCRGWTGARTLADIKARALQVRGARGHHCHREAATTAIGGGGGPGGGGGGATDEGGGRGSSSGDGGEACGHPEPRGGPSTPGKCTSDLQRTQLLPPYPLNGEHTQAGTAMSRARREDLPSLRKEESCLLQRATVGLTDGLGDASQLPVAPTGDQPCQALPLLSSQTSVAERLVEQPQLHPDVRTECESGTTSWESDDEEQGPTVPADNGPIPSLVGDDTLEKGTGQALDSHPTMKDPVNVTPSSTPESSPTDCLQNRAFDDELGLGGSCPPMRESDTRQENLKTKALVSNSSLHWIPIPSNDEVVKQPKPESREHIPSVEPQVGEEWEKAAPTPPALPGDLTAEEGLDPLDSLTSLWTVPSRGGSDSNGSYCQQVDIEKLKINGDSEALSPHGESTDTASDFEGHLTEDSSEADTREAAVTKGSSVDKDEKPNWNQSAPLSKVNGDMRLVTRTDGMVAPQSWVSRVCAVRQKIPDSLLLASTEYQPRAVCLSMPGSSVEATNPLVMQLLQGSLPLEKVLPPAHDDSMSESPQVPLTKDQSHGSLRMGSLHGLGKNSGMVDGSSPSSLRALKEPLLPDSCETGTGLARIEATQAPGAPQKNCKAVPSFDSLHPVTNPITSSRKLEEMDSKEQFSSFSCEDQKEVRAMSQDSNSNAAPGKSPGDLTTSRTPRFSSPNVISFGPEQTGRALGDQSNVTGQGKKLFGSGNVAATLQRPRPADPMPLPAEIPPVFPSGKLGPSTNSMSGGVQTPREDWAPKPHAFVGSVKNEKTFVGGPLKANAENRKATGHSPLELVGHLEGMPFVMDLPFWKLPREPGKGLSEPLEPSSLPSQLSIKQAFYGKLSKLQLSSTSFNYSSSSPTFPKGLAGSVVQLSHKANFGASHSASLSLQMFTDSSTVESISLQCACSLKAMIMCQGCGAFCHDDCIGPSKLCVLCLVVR

B1: lysine-specific demethylase 1B (KDM1B) (protein, UniProt Q8NB78 1-822)
chain: MATPRGRTKKKASFDHSPDSLPLRSSGRQAKKKATETTDEDEDGGSEKKYRKCEKAGCTATCPVCFASASERCAKNGYTSRWYHLSCGEHFCNECFDHYYRSHKDGYDKYTTWKKIWTSNGKTEPSPKAFMADQQLPYWVQCTKPECRKWRQLTKEIQLTPQIAKTYRCGMKPNTAIKPETSDHCSLPEDLRVLEVSNHWWYSMLILPPLLKDSVAAPLLSAYYPDCVGMSPSCTSTNRAAATGNASPGKLEHSKAALSVHVPGMNRYFQPFYQPNECGKALCVRPDVMELDELYEFPEYSRDPTMYLALRNLILALWYTNCKEALTPQKCIPHIIVRGLVRIRCVQEVERILYFMTRKGLINTGVLSVGADQYLLPKDYHNKSVIIIGAGPAGLAAARQLHNFGIKVTVLEAKDRIGGRVWDDKSFKGVTVGRGAQIVNGCINNPVALMCEQLGISMHKFGERCDLIQEGGRITDPTIDKRMDFHFNALLDVVSEWRKDKTQLQDVPLGEKIEEIYKAFIKESGIQFSELEGQVLQFHLSNLEYACGSNLHQVSARSWDHNEFFAQFAGDHTLLTPGYSVIIEKLAEGLDIQLKSPVQCIDYSGDEVQVTTTDGTGYSAQKVLVTVPLALLQKGAIQFNPPLSEKKMKAINSLGAGIIEKIALQFPYRFWDSKVQGADFFGHVPPSASKRGLFAVFYDMDPQKKHSVLMSVIAGEAVASVRTLDDKQVLQQCMATLRELFKEQEVPDPTKYFVTRWSTDPWIQMAYSFVKTGGSGEAYDIIAEDIQGTVFFAGEATNRHFPQTVTGAYLSGVREASKIAAF

Tests used:
[1] = target: Flag-BAP1 ΔASXL (removal of amino acids 666 to 669) (UniProt Q92560); experiment: co-IP; cell lysates incubated with Anti-Flag/Myc Magnetic Beads overnight at 4 °C, beads washed three times with lysis buffer, eluate analysed by SDS-PAGE and Western blotting; BAP1 pulled down
[2] = target: Flag-BAP1 (wild-type BRCA1-associated protein 1) (UniProt Q92560); experiment: as above

| Molecule | binding [1] | binding [2] |
| --- | --- | --- |
| ASXL1 (additional sex combs-like protein 1) (from UniProt Q8IXJ9 1-1541) | no binding | binds |
| B1 | no binding | binds |
